The text below walks through data of PMC8119208 (JCI Insight, 2021).

No constants are given. Whether binding was seen depends on the method and setting. For some assays here: Binding seen in cells or lysates may run through a third protein. Some results given as binding are weak or reduced against the parent protein; the word gives no strength. For some assays here: Where a sequence is shown, tags or fusion partners need not be part of it.

Experiment [1] deals with T1, GST-fused PTP1B (amino acids 1-277) (UniProt P18031).
T1 sequence: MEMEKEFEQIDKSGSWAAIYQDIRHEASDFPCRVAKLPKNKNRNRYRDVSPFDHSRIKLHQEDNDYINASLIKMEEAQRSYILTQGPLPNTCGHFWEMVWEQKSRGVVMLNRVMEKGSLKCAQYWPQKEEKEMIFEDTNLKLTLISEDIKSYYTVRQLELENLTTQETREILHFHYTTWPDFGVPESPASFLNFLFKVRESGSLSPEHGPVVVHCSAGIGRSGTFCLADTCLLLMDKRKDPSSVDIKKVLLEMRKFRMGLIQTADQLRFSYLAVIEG
Description: pull-down; GST pull-down with purified proteins from E. coli: His-PDL1-CT / MBP-PDL1-CT (0.5 μg) and 0.5 μg GST or GST-fusion proteins; both purified.

Experiment [2] concerns the target T2, GST-fused PTP1B (amino acids 1-321) (UniProt P18031).
T2 sequence: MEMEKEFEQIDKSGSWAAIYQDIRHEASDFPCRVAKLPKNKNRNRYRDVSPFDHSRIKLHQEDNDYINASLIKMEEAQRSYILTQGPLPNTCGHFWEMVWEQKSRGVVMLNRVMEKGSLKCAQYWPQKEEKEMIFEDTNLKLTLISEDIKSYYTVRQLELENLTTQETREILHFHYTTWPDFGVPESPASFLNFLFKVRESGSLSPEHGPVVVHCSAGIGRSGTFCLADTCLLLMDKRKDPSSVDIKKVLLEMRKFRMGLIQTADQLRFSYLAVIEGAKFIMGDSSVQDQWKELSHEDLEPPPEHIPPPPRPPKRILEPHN
The experiment is described as above.

Experiment [3] concerns the target PD-L1 (programmed death ligand 1), exogenous, expressed in HEK293T cells (human) (UniProt Q9NZQ7). The experiment is described as follows: co-IP; HEK293T cells transfected with PD-L1 and HA-tagged PTP1B for 48 hours; immunoprecipitation followed by immunoblotting. A general note: In western blotting, separated proteins are transferred to a membrane and probed.
Experiment [4] has the same target. Description: co-IP; PD-L1 overexpressed in HEK293T immunoprecipitated by PD-L1 antibody; endogenous partners seen by immunoblotting.
Experiment [5] concerns the target endogenous PD-L1 of MDA-MB-231 cells (human (endogenous in MDA-MB-231)) (UniProt Q9NZQ7). Description: co-IP; endogenous proteins in MDA-MB-231 cells; endogenous PD-L1 as bait.

B1: MBP-tagged PD-L1 cytoplasmic domain (domain or fragment, human, UniProt Q9NZQ7 262-290, looked up)
chain: RKGRMMDVKKCGIQDTNSKKQSDTHLEET
notes: PD-L1 cytoplasmic domain, human, amino acids 262-290, subcloned into pET-His6 (Addgene plasmid 29656; named in the acknowledgements as PET His6 MBP TEV LIC cloning vector); The results and legend call it MBP-PDL1-CT, the methods of the pull-down His-PDL1-CT; also called MBP-PDL1-CT; His-PDL1-CT; source: E. coli, purified (His resin)
For the molecule B1, the binding result in experiment [1] and in experiment [2] was “no binding (tested: 0.5 μg of each protein)” throughout.

B2: HA-tagged PTP1B (enzyme, UniProt P18031 1-435)
chain: MEMEKEFEQIDKSGSWAAIYQDIRHEASDFPCRVAKLPKNKNRNRYRDVSPFDHSRIKLHQEDNDYINASLIKMEEAQRSYILTQGPLPNTCGHFWEMVWEQKSRGVVMLNRVMEKGSLKCAQYWPQKEEKEMIFEDTNLKLTLISEDIKSYYTVRQLELENLTTQETREILHFHYTTWPDFGVPESPASFLNFLFKVRESGSLSPEHGPVVVHCSAGIGRSGTFCLADTCLLLMDKRKDPSSVDIKKVLLEMRKFRMGLIQTADQLRFSYLAVIEGAKFIMGDSSVQDQWKELSHEDLEPPPEHIPPPPRPPKRILEPHNGKCREFFPNHQWVKEETQEDKDCPIKEEKGSPLNAAPYGIESMSQDTEVRSRVVGGSLRGAQAASPAKGEPSLPEKDEDHALSYWKPFLVNMCVATVLTAGAYLCYRFLFNSNT
Turning to B2, in experiment [3], the binding result is “binds”.

B3: endogenous PTP1B of HEK293T cells (enzyme, UniProt P18031 1-435)
chain: B2 chain
With B3, the binding result in experiment [4] was “binds”.

B4: endogenous PTP1B of MDA-MB-231 cells (enzyme, UniProt P18031 1-435)
chain: B2 chain
As to B4, the binding entry in experiment [5] was “binds”.
